The subject of the assay is Salmonella enterica serovar Typhimurium SL1344. Put plainly: bacterial growth OD600 after 18 h with compound and polymyxin B; higher = more bacterial growth (less inhibition). The note with it: 50 µM, Mueller-Hinton broth.

The structures appear in SMILES notation. The list shows a part of the results. Values are raw readings; no control value is given beside them.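 First-pass screen: polymyxin B was added at a level that permeabilizes the Salmonella outer membrane while sparing the inner membrane. DMSO wells, with and without polymyxin B, defined maximum growth. Because plates differed from one another, each plate's data were ranked separately and the compounds with the lowest OD600 were carried forward as hits.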

For the compound `COc1cccc(-c2cnc(-c3ccncc3)nc2C2CCN(Cc3ccccc3OC)CC2)c1`, the “bacterial growth OD600” value (polymyxin B 0.75 µg/mL) came to 0.821. `COc1ccccc1OCC(=O)NCC1CCCN(Cc2ccccc2)C1` (stereo not given): the “bacterial growth OD600” value (polymyxin B 1 µg/mL) was 0.992. Consider `COCc1ccc(C(=O)N2CCc3[nH]nc(-c4ccc5c(c4)OCO5)c3C2)o1`, for which, for the setting “polymyxin B 0.75 µg/mL”, the “bacterial growth OD600” value worked out at 0.881. Regarding `Cc1cccc(C)c1OCc1cc(C(=O)N2CCN3CCCC3C2)no1` (stereo not given), the “bacterial growth OD600” value (polymyxin B 1 µg/mL) came out at 0.976. As to `CCOC(=O)C1(Cc2ccc(Cl)cc2)CCN(C)CC1`, where the note is “polymyxin B 1 µg/mL”, the “bacterial growth OD600” value amounted to 0.886. As for `Cc1ccccc1CNC(=O)c1cc(CC(C)c2ccccc2)no1` (stereo not given), the “bacterial growth OD600” value (polymyxin B 0.75 µg/mL) worked out at 0.428. As for `O=C(NCCc1cccc(Cl)c1)C1CCC(=O)N(Cc2ccc(Cl)cc2)C1` (stereo not given), for the setting “polymyxin B 1 µg/mL”, the “bacterial growth OD600” value came to 0.575. Turning to `Cn1cc(C(=O)N2CC[C@@H](N3CCN(c4ccccc4F)CC3)[C@H](O)C2)c2ccccc21`, the “bacterial growth OD600” value (polymyxin B 1 µg/mL) was determined as 1.05. For `O=C(NCc1cccnc1-n1cnc2ccccc21)C1CCC1`, the “bacterial growth OD600” value (polymyxin B 1 µg/mL) is 0.882. As to `CCN1C(=O)CC(CC(=O)N(C)CCc2ccccc2)(c2cccc(C(F)(F)F)c2)C1=O` (stereo not given), under “polymyxin B 0.75 µg/mL”, the “bacterial growth OD600” value amounted to 0.005.

(Values after the supplement of paper PMC12889115.)
